Values joined by “and” are separate entries in the source; they are usually repeats but may differ in a detail not shown here. Equal values may be shown once. This is one part of the list. Single values are uncertain here, since repeats match poorly.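 U2OS cells expressing ACE2 were combined with U2OS cells expressing full-length spike, and imaging quantified fusion as the fraction of nuclei displaying both cell types' fluorescent markers. Non-toxic compounds with a fusion z-score under -3, i.e., over three standard deviations below the plate's DMSO wells, are called inhibitory hits.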
What follows are molecules tested on U2OS ACE2 x SARS-CoV-2 spike co-culture (assay: cell-cell fusion (fraction fused) z-score vs plate DMSO control; higher = more fusion). Settings: 30 µM; 5 h; toxicity class: non-toxic, passed QC.

| SMILES | cell-cell fusion (z-score) |
| --- | --- |
| C[C@@](Cc1ccc(O)c(O)c1)(NN)C(=O)O | inactive: 0.267 |
| Cl.CN(C)CC\C=C1\c2ccccc2C=Cc2ccccc12 [Cyclobenzaprine hydrochloride] | inactive: 2.29 |
| CC1(C)CC2C1CCC1(C)OC2(C)CCC1O (configuration not stated) | inactive: 2.76 |
| Br.CN1C2CC(OC(=O)[C@H](CO)c3ccccc3)CC1C1OC12 (single isomer, unassigned; (-)) [(-)-Scopolamine hydrobromide] | inactive: 1.26 |
| O=C(O)[C@H]1O[C@@H](Oc2cc3oc(-c4ccccc4)cc(=O)c3c(O)c2O)[C@H](O)[C@@H](O)[C@@H]1O | inactive: 1.59 |
| CN1CCC(c2c[nH]c3ccc(O)cc23)CC1.O=C(O)/C=C\C(=O)O | inactive: 1.88 |
| CC(=O)[C@H]1CCC2C3CC=C4C[C@@H](OS(=O)(=O)[O-])CC[C@]4(C)C3CC[C@@]21C.[Na+] (some centres not stated) [Pregnenolone sulfate sodium] | inactive: 0.0618 |
| C=CCc1cccc(/C=N/NC(=O)CN2CCN(Cc3ccccc3)CC2)c1O | inactive: 0.246 |
| CN(C)CC(c1ccc(O)cc1)C1(O)CCCCC1 (configuration not stated) [Desvenlafaxine] | inactive: 3.3 |
| COC(=O)c1ccc2c(c1)NC(=O)/C2=C(\Nc1ccc(N(C)C(=O)CN2CCN(C)CC2)cc1)c1ccccc1 [BIBF1120 (Vargatef)] | inactive: 1.62 |
| Nc1nc(N)c2nc(CNc3ccc(C(=O)NC(CCC(=O)O)C(=O)O)cc3)cnc2n1 (configuration not stated) | inactive: 1.7 |
| COc1ccc([C@@H]2CC(=O)c3c(O)cc(O[C@@H]4O[C@H](CO[C@H]5O[C@@H](C)[C@H](O)[C@@H](O)[C@H]5O)[C@@H](O)[C@H](O)[C@H]4O)cc3O2)cc1O | inactive: 1.91 |
| CC(C)NCC(O)COc1cccc2ccccc12.Cl (configuration not stated) [Propranolol hydrochloride] | inactive: 2.44 |
| COc1ccc(NS(=O)(=O)c2ccc(N)cc2)nn1 | inactive: 2.41 |
| O=NN(CCCl)C(=O)NC1CCCCC1 [Lomustine (CeeNU)] | inactive: 1.55 |
| CC(C(=O)O)c1cccc(Oc2ccccc2)c1 (configuration not stated) | inactive: -0.922 |
| N#Cc1ccc(C(c2ccc(C#N)cc2)n2cncn2)cc1 [Letrozole] | inactive: 1.12 |
| COc1cc2ncnc(Nc3ccc(F)c(Cl)c3)c2cc1OCCCN1CCOCC1 [Gefitinib (Iressa)] | inactive: 1.65 |
| COc1cc2ncnc(Nc3ccc(F)c(Cl)c3)c2cc1OCCCN1CCOCC1 [Gefitinib (ZD1839)] | inactive: -0.815 |
| CCCCCCCCCCCCCCCCCC(=O)O.CC[C@H]1OC(=O)[C@H](C)[C@@H](O[C@H]2C[C@@](C)(OC)[C@@H](O)[C@H](C)O2)[C@H](C)[C@@H](O[C@@H]2O[C@H](C)C[C@H](N(C)C)[C@H]2O)[C@](C)(O)C[C@@H](C)C(=O)[C@H](C)[C@@H](O)[C@]1(C)O | inactive: 1.89 |
| Cn1nnnc1SCC1=C(C(=O)[O-])N2C(=O)C(NC(=O)C(O)c3ccccc3)C2SC1.[Na+] (configuration not stated) | inactive: 1.77 |

| SMILES | cell-cell fusion (z-score) |
| --- | --- |
| CC(=O)OCC(=O)[C@@]12OC(C)(C)O[C@@H]1CC1C3C[C@H](F)C4=CC(=O)C=C[C@]4(C)[C@@]3(F)[C@@H](O)C[C@@]12C (some centres not stated) | inactive: -0.139 |
| O=c1[nH]c(=O)c2ccccc2o1 | inactive: 1.13 |
| COc1cccc(-c2cc(=O)c3ccc(OC)cc3o2)c1 | inactive: 4.1 |
| FC(F)(F)COCC(F)(F)F | inactive: 1.8 |
| CCC(Cc1c(I)cc(I)c(N)c1I)C(=O)O (configuration not stated) | inactive: 2.94 |
| COC(=O)/C(=C1\OC(=O)C(c2ccccc2)=C1O)c1ccccc1 | inactive: 1.43 |
| CC(=O)NCC(=O)O.CC(=O)NCC(=O)O.N=C(N)c1ccc(/N=N/Nc2ccc(C(=N)N)cc2)cc1 | inactive: 2.13 |
| CC[C@@H]1C(=O)OC[C@@H]1Cc1cncn1C.Cl [(+)-Pilocarpine hydrochloride] | inactive: 3.21 |
| CN(C)CCOc1ccc(/C(=C(/CCCl)c2ccccc2)c2ccccc2)cc1.O=C(O)CC(O)(CC(=O)O)C(=O)O [Toremifene Citrate (Fareston, Acapodene)] | inactive: 0.136 |
| CCOc1cccc(C(=O)c2ccc(O)c(O)c2O)c1 | inactive: 4.09 |
| CCCCC/C=C/CCC(=O)N[C@H]1[C@H](Oc2c3cc4cc2Oc2ccc(cc2Cl)[C@@H](O[C@@H]2O[C@H](CO)[C@@H](O)[C@H](O)[C@H]2NC(C)=O)[C@@H]2NC(=O)[C@H](NC(=O)[C@@H]4NC(=O)[C@H]4NC(=O)C(Cc5ccc(c(Cl)c5)O3)NC(=O)[C@H](N)c3ccc(O)c(c3)Oc3cc(O)cc4c3)c3ccc(O)c(c3)-c3c(OC4O[C@H](CO)[C@@H](O)[C@H](O)[C@@H]4O)cc(O)cc3[C@@H](C(=O)O)NC2=O)O[C@H](CO)[C@@H](O)[C@@H]1O (some centres not stated) [TEICOPLANIN [A(2-1) shown]] | inactive: 0.765 |
| CC(=O)[C@H]1CC[C@H]2[C@@H]3CCC4C[C@H](O)CC[C@]4(C)[C@H]3C[C@H](O)[C@]12C (stereo partly drawn) [3alpha,12alpha-DIHYDROXY-PREGNAN-20-ONE] | inactive: 2.58 |
| CCOC(=O)[C@H](CCc1ccccc1)N[C@@H](C)C(=O)N1[C@H](C(=O)O)C[C@@H]2CCC[C@@H]21 [Ramipril] | inactive: 1.17 |
| CC(=O)O[C@]1(C(C)=O)CCC2C3C=C(Cl)C4=CC(=O)CC[C@]4(C)C3CC[C@@]21C (some centres not stated) | inactive: 1.69 |
| CC(=O)O[C@H]1CC[C@@]2(C)C(=CC[C@@H]3[C@@H]2CC[C@]2(C)C(=O)CC[C@@H]32)C1 [Dehydroepiandrosterone acetate] | inactive: 3.22 |
| O=C(C1CCCCC1)N1CC(=O)N2CCc3ccccc3C2C1 (configuration not stated) [Praziquantel] | inactive: 3.31 |
| CCN(CC)CCNC(=O)c1c(C)[nH]c(/C=C2\C(=O)Nc3ccc(F)cc32)c1C.O=C(O)C[C@H](O)C(=O)O [Sunitinib] | inactive: 1.43 |
| CCOC(=O)C(C)(C)Oc1ccc(Cl)cc1 [Clofibrate] | inactive: 3.84 |
| c1ccc2c(c1)Nc1ccccc1S2 | inactive: -1.82 |
| C[C@]12C=CC(=O)C=C1CCC1C2C(=O)C[C@@]2(C)C1CC[C@]2(O)C(=O)CO (some centres not stated) | inactive: 1.61 |
| CN1CCN(c2nc(C3=C(c4c[nH]c5ccccc45)C(=O)NC3=O)c3ccccc3n2)CC1 [Sotrastaurin (AEB071)] | inactive: 1.92 |

2 entries picked at random from the list so far, as already listed:

| SMILES | cell-cell fusion (z-score) |
| --- | --- |
| CC(=O)O[C@]1(C(C)=O)CCC2C3C=C(Cl)C4=CC(=O)CC[C@]4(C)C3CC[C@@]21C (some centres not stated) | inactive: 1.69 |
| CC(=O)O[C@H]1CC[C@@]2(C)C(=CC[C@@H]3[C@@H]2CC[C@]2(C)C(=O)CC[C@@H]32)C1 [Dehydroepiandrosterone acetate] | inactive: 3.22 |

(cont.)

| SMILES | cell-cell fusion (z-score) |
| --- | --- |
| O=C(Oc1ccccc1C(=O)O)c1ccccc1O | inactive: 0.578 |
| CS(=O)(=O)O.Oc1ccc2c3c1O[C@H]1c4oc5ccccc5c4C[C@@]4(O)C(C2)N(CC2CC2)CCC314 (some centres not stated) [Naltriben methanesulfonate] | inactive: 3.48 |
| CCC(C)C(N)C1=NC(C(=O)NC(CC(C)C)C(=O)NC(CCC(=O)O)C(=O)NC(C(=O)NCCCCC2NC(=O)C(CC(N)=O)NC(=O)C(CC(=O)O)NC(=O)C(Cc3c[nH]cn3)NC(=O)C(Cc3ccccc3)NC(=O)C(C(C)CC)NC(=O)C(CCCN)NC2=O)C(C)CC)CS1 (configuration not stated) | inactive: 0.919 |
| Cc1ccc(NC(=O)c2cccc(C(C)(C)C#N)c2)cc1Nc1ccc2ncn(C)c(=O)c2c1 | inactive: 1.24 and inactive: 1.61 |
| CCc1ccc(CCOc2ccc(CC3SC(=O)NC3=O)cc2)nc1.Cl (configuration not stated) [Pioglitazone hydrochloride] | inactive: 0.829 |
| Br.C#CCOC(=O)C1=CCCN(C)C1 [Arecaidine propargyl ester hydrobromide] | inactive: 2.32 |
| Cc1ccc(S(=O)(=O)NC(=O)NN2CC3CCCC3C2)cc1 (configuration not stated) | inactive: 1.69 |
| CC1=CC(=O)CC(C)(C)C1(O)/C=C/C(C)=C\C(=O)O (mixture of isomers) [ABSCISIC ACID (cis,trans; +/-)] | inactive: 2.43 |
| COc1ccccc1N1CCNCC1.Cl | inactive: 4.3 |
| Clc1ccc(C(Cn2ccnc2)OCc2ccsc2Cl)c(Cl)c1 (configuration not stated) | inactive: -0.886 |
| N=C(N)NOCC[C@H](N)C(=O)O [L-Canavanine] | inactive: 3.23 |
| O=C(CCCN1CCC(O)(c2ccc(Cl)cc2)CC1)c1ccc(F)cc1 [Haloperidol] | inactive: 4.44 |
| CC(/C=C/c1cccc(Oc2ccc(F)cc2)c1)N(O)C(N)=O (configuration not stated) | inactive: 1.83 |
| Cc1cc(CCC[C@H](CC(=O)NO)C(=O)N[C@H](C(=O)N[C@H](C)c2ccccc2)C(C)(C)C)ccc1-c1ccccc1 | active: -18.4 |
| Cc1ncc(CO)c(CO)c1O | inactive: 1.17 |
| C[C@]12C=CC(=O)C=C1CCC1C2[C@@H](O)C[C@@]2(C)C1CC[C@]2(O)C(=O)COP(=O)([O-])[O-].[Na+].[Na+] (some centres not stated) | inactive: 1.51 |
| CC(=O)NC(Cc1ccccc1)C(=O)O (configuration not stated) | inactive: 3.96 |
| CCN[C@@H]1C[C@H](C)S(=O)(=O)c2sc(S(N)(=O)=O)cc21.Cl [Dorzolamide HCL] | inactive: 1.31 |
| CC(C)[N+](C)(CCOC(=O)C1c2ccccc2Oc2ccccc21)C(C)C.[Br-] [Propantheline bromide] | inactive: 2.14 |
| CC(C)(C)c1cc(/C=C(\C#N)C(N)=S)cc(C(C)(C)C)c1O [Tyrphostin AG 879] | inactive: 2.7 |

Reference: the supplement of paper PMC8104966
